# Results deposited as PubChem BioAssay AID1259254 (NCATS, 2017)
# Assay: 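Genome-wide screen for genes that prevent DNA re-replication in cancer cells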 (primary screen)
# Cells: human HCT116 colorectal cancer cells
# Knock-down reagent: single siRNA against human genes
# Time to read-out: 3 days
# Measured: 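Imaged Hoechst DNA stain sorts each cell into a cycle phase by DNA amount; per plate, G2 fraction set to 0% for non-targeting and 100% for GMNN siRNA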
# Direction: G2 robust z-score: higher = more G2 cells, more excess DNA replication
# Call rule: 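Active siRNAs have a G2 robust z of 5 or more median absolute deviations over the median, which in these data means about 38% or higher of GMNN control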
# Here is a random part of about 59,000 reagents tested. Over the whole deposit, about 1,550 (2.6%) were called active. 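G2 share is only a proxy for re-replication; each gene was hit by three separate siRNAs, and active genes were retested.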 The numbers tell different reagents against one gene apart. Further read-outs or replicates are left out here. The record does not give: the amount of reagent.
Gene,reagent no.,G2 robust z-score,outcome
PRPF39 (pre-mRNA processing factor 39),1,-0.698,inactive
PRPF39 (pre-mRNA processing factor 39),2,1.4,inactive
PRPF39 (pre-mRNA processing factor 39),3,1.94,inactive
ATIC,1,0.0145,inactive
ATIC,2,-0.596,inactive
ATIC,3,-0.192,inactive
"PSMC5 (proteasome 26S subunit, ATPase 5)",1,0.204,inactive
"PSMC5 (proteasome 26S subunit, ATPase 5)",2,0.569,inactive
"PSMC5 (proteasome 26S subunit, ATPase 5)",3,13.2,active
ARMC6 (armadillo repeat containing 6),1,-0.485,inactive
ARMC6 (armadillo repeat containing 6),2,-0.111,inactive
ARMC6 (armadillo repeat containing 6),3,0.203,inactive

4 of these entries, reformatted.
PSMC5 (proteasome 26S subunit, ATPase 5) #3 | G2 robust z-score: 13.2; outcome: active
ARMC6 (armadillo repeat containing 6) #1 | G2 robust z-score: -0.485; outcome: inactive
ARMC6 (armadillo repeat containing 6) #2 | G2 robust z-score: -0.111; outcome: inactive
ARMC6 (armadillo repeat containing 6) #3 | G2 robust z-score: 0.203; outcome: inactive

Next entries:
Gene,reagent no.,G2 robust z-score,outcome
IQCK (IQ motif containing K),1,-0.68,inactive
IQCK (IQ motif containing K),2,-0.202,inactive
IQCK (IQ motif containing K),3,0.0124,inactive
RNF175 (ring finger protein 175),1,-0.264,inactive
RNF175 (ring finger protein 175),2,-0.602,inactive
RNF175 (ring finger protein 175),3,-0.674,inactive
MOV10L1 (Mov10 like RNA helicase 1),1,-0.373,inactive
MOV10L1 (Mov10 like RNA helicase 1),2,-1.14,inactive
MOV10L1 (Mov10 like RNA helicase 1),3,-0.571,inactive
LINC00951 (long independently transcribed non-coding RNA 951),1,-0.546,inactive
LINC00951 (long independently transcribed non-coding RNA 951),2,-0.776,inactive
LINC00951 (long independently transcribed non-coding RNA 951),3,0.3,inactive
MRPS22 (mitochondrial ribosomal protein S22),1,-0.638,inactive
MRPS22 (mitochondrial ribosomal protein S22),2,0.933,inactive
MRPS22 (mitochondrial ribosomal protein S22),3,3.47,inactive
PLLP (plasmolipin),1,0.0429,inactive
PLLP (plasmolipin),2,0.633,inactive
PLLP (plasmolipin),3,-0.203,inactive
